From paper PMC11237139
No constants are given. Whether binding was seen depends on the method and setting. Binding seen in cells or lysates may run through a third protein. Binding calls can cover weak binding; strength is not graded here.

Assays:
Assay in all cases: co-IP; N2a cells co-transfected with Flag-tagged receptor and Lrig1 plasmids, lysed after 48 h in TNTE buffer with 0.5% Triton-X-100; anti-Flag magnetic beads, 2 h at 4 °C; washed with TNTE 0.1% Triton; western blot for LRIG1 and FLAG
FLAG-tagged TGFβR2 = molecular target: FLAG-tagged TGFβR2
FLAG-tagged BMPR1B = molecular target: FLAG-tagged BMPR1B
FLAG-tagged TGFβR1 = molecular target: FLAG-tagged TGFβR1

Measured: binding

B1: mouse LRIG1 (leucine-rich repeats and immunoglobulin-like domains protein 1), overexpressed from a pCMV plasmid (protein, UniProt P70193 35-1091)
chain: AQAGPRAPCAAACTCAGDSLDCSGRGLATLPRDLPSWTRSLNLSYNRLSEIDSAAFEDLTNLQEVYLNSNELTAIPSLGAASIGVVSLFLQHNKILSVDGSQLKSYLSLEVLDLSSNNITEIRSSCFPNGLRIRELNLASNRISILESGAFDGLSRSLLTLRLSKNRITQLPVKAFKLPRLTQLDLNRNRIRLIEGLTFQGLDSLEVLRLQRNNISRLTDGAFWGLSKMHVLHLEYNSLVEVNSGSLYGLTALHQLHLSNNSISRIQRDGWSFCQKLHELILSFNNLTRLDEESLAELSSLSILRLSHNAISHIAEGAFKGLKSLRVLDLDHNEISGTIEDTSGAFTGLDNLSKLTLFGNKIKSVAKRAFSGLESLEHLNLGENAIRSVQFDAFAKMKNLKELYISSESFLCDCQLKWLPPWLMGRMLQAFVTATCAHPESLKGQSIFSVLPDSFVCDDFPKPQIITQPETTMAVVGKDIRFTCSAASSSSSPMTFAWKKDNEVLANADMENFAHVRAQDGEVMEYTTILHLRHVTFGHEGRYQCIITNHFGSTYSHKARLTVNVLPSFTKIPHDIAIRTGTTARLECAATGHPNPQIAWQKDGGTDFPAARERRMHVMPDDDVFFITDVKIDDMGVYSCTAQNSAGSVSANATLTVLETPSLAVPLEDRVVTVGETVAFQCKATGSPTPRITWLKGGRPLSLTERHHFTPGNQLLVVQNVMIDDAGRYTCEMSNPLGTERAHSQLSILPTPGCRKDGTTVGIFTIAVVCSIVLTSLVWVCIIYQTRKKSEEYSVTNTDETIVPPDVPSYLSSQGTLSDRQETVVRTEGGHQANGHIESNGVCLRDPSLFPEVDIHSTTCRQPKLCVGYTREPWKVTEKADRTAAPHTTAHSGSAVCSDCSTDTAYHPQPVPRDSGQPGTASSQELRQHDREYSPHHPYSGTADGSHTLSGGSLYPSNHDRILPSLKNKAASADGNGDSSWTLAKLHEADCIDLKPSPTLASGSPELMEDAISTEAQHLLVSNGHLPKACDSSPESVPLKGQITGKRRGPLLLAPRS
binds: all assays above
